A short description of the series: Interaction with glutathione. The settings on record: for ελmax: 24 h.
[1] abbreviates: compound + 2[GSH] (two-fold glutathione), pH 7.4, 37 °C.
The mark [2] stands for this setting: compound alone, phosphate buffer pH 7.4, 37 °C.

Consider `O=c1[nH]c(=S)[nH]c2nc(-c3ccc(Cl)cc3)cc(-c3ccc(Cl)cc3)c12` [Compound 2f, 5,7-bis(4-chlorophenyl)-2-thioxo-2,3-dihydropyrido [2,3-d]pyrimidin-4(1H)-one], for which the ελmax reads like this: under setting [1], 220 M⁻¹ cm⁻¹; under setting [2], 1130 M⁻¹ cm⁻¹.

With `O=c1[nH]c(=S)[nH]c2nc(-c3ccccc3)cc(-c3ccccc3)c12` [Compound 2a, 5,7-diphenyl-2-thioxo-2,3-dihydropyrido [2,3-d]pyrimidin-4(1H)-one], the ελmax runs as follows: under setting [1], 4200 M⁻¹ cm⁻¹; under setting [2], 5385 M⁻¹ cm⁻¹.

For `O=C(/C=C/c1ccc(Cl)cc1Cl)c1ccc(Cl)cc1` [Compound 1h, (E)-1-(4-chlorophenyl)-3-(2,4-dichlorophenyl)prop-2-en-1-one], where the note is “in words, after incubation”, the Interaction with glutathione result is on record as “apart from”.
